The supplement of paper PMC10849652
The other results are listed elsewhere or left out.

The chains behind the UniProt entries cited, without tags or fusion partners. Where a name states a change or a piece, a line headed by the entry shows the natural chain unless it says otherwise.
UniProt Q9UKT5: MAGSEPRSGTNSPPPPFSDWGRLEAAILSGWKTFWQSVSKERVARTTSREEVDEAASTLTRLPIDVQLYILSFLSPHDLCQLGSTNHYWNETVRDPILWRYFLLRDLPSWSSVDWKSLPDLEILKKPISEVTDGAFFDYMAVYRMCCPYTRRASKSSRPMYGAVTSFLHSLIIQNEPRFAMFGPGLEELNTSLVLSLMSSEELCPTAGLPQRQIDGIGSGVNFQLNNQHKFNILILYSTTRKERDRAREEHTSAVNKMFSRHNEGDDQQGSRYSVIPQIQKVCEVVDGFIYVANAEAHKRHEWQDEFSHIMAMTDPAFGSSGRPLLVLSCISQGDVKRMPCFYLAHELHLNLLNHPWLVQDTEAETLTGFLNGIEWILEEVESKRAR
UniProt Q17RN3: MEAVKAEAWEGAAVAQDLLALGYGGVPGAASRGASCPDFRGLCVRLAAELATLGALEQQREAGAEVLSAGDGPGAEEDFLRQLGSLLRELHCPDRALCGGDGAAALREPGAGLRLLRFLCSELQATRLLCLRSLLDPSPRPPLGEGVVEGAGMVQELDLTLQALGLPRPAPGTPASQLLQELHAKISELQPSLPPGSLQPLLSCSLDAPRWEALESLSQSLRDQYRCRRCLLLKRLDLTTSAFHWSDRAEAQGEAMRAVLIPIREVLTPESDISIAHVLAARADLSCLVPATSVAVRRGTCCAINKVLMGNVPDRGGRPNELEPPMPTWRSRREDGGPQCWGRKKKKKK
UniProt Q86WN1: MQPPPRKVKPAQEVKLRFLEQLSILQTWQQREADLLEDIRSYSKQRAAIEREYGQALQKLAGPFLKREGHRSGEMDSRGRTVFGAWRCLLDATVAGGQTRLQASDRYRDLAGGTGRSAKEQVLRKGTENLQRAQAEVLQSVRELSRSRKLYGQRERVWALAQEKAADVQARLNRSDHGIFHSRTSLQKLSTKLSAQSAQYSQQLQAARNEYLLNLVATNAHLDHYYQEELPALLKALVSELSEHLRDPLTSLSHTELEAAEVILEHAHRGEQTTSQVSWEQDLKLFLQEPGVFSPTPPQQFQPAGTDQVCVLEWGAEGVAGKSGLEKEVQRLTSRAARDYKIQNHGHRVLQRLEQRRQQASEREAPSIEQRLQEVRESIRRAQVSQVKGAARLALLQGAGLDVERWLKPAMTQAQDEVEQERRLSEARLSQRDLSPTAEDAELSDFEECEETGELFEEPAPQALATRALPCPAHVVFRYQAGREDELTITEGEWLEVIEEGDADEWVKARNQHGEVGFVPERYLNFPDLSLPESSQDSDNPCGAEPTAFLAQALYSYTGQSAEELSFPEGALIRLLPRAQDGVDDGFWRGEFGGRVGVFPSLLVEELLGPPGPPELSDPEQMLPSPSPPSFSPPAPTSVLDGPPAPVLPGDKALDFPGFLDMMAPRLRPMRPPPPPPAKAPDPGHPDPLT
UniProt P21333, whole entry, looked up: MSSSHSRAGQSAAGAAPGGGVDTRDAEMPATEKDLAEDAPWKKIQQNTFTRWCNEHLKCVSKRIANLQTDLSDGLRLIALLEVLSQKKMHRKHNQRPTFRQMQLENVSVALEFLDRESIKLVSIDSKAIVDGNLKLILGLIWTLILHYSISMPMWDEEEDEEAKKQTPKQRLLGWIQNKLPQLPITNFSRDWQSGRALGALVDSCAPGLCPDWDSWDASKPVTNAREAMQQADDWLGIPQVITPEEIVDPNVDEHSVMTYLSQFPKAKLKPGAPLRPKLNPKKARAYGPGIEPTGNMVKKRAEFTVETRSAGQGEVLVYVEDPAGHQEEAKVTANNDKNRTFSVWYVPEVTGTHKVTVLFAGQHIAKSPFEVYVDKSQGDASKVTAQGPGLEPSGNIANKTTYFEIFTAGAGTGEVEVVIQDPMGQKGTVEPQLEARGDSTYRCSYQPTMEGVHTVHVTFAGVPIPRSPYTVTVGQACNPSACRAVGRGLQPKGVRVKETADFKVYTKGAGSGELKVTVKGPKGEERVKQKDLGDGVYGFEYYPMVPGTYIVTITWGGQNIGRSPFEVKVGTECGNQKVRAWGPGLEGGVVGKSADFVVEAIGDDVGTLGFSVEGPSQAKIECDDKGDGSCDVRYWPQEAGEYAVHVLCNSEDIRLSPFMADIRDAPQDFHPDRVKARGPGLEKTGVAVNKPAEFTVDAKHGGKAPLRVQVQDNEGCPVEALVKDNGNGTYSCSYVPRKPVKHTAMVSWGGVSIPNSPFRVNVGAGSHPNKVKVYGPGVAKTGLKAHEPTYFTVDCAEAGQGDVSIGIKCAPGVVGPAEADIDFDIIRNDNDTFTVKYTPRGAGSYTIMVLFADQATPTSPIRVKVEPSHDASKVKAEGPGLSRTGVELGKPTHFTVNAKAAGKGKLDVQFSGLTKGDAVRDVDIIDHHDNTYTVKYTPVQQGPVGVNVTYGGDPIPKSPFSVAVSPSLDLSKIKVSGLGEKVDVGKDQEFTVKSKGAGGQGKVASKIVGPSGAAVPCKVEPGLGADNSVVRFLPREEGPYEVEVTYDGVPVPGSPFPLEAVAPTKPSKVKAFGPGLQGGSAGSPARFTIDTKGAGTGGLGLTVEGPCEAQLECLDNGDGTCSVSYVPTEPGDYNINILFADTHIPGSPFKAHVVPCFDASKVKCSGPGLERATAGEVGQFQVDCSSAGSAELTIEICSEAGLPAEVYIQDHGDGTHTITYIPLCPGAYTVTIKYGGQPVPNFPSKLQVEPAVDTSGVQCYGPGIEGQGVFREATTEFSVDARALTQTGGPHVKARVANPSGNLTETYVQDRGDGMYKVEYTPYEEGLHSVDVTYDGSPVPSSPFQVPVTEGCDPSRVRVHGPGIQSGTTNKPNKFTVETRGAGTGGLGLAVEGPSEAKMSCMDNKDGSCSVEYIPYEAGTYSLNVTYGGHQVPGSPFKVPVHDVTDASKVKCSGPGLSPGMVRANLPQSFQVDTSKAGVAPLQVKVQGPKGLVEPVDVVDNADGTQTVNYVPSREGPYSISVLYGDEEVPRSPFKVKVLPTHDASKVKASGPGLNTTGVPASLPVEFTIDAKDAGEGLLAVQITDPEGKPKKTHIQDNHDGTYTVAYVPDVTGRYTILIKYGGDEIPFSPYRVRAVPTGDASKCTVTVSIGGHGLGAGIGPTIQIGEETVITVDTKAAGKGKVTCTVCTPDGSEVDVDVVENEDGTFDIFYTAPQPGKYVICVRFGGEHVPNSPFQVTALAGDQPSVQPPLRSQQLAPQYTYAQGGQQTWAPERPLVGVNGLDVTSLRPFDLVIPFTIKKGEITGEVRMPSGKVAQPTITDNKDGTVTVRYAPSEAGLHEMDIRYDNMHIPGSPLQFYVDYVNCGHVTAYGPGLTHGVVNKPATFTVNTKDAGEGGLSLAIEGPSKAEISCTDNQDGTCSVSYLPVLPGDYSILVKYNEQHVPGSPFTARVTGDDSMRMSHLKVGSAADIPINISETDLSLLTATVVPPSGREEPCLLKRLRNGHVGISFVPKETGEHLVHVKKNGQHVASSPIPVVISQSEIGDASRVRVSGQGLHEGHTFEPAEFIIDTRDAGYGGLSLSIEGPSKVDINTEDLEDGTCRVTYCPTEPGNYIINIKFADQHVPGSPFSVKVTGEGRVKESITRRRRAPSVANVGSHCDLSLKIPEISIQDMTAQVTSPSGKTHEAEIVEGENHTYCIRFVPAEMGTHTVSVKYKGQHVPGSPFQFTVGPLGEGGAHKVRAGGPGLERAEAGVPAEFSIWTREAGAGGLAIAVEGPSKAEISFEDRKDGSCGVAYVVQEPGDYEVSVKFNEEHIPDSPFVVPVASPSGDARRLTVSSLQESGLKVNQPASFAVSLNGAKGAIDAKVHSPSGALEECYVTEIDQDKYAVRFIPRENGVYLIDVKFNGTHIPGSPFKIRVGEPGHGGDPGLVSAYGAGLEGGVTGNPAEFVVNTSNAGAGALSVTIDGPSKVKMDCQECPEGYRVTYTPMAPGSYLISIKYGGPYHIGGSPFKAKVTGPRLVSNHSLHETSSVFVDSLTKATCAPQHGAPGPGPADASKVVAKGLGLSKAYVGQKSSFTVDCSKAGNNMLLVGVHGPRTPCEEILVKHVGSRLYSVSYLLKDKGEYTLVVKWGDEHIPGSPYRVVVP
UniProt P02751, whole entry, looked up: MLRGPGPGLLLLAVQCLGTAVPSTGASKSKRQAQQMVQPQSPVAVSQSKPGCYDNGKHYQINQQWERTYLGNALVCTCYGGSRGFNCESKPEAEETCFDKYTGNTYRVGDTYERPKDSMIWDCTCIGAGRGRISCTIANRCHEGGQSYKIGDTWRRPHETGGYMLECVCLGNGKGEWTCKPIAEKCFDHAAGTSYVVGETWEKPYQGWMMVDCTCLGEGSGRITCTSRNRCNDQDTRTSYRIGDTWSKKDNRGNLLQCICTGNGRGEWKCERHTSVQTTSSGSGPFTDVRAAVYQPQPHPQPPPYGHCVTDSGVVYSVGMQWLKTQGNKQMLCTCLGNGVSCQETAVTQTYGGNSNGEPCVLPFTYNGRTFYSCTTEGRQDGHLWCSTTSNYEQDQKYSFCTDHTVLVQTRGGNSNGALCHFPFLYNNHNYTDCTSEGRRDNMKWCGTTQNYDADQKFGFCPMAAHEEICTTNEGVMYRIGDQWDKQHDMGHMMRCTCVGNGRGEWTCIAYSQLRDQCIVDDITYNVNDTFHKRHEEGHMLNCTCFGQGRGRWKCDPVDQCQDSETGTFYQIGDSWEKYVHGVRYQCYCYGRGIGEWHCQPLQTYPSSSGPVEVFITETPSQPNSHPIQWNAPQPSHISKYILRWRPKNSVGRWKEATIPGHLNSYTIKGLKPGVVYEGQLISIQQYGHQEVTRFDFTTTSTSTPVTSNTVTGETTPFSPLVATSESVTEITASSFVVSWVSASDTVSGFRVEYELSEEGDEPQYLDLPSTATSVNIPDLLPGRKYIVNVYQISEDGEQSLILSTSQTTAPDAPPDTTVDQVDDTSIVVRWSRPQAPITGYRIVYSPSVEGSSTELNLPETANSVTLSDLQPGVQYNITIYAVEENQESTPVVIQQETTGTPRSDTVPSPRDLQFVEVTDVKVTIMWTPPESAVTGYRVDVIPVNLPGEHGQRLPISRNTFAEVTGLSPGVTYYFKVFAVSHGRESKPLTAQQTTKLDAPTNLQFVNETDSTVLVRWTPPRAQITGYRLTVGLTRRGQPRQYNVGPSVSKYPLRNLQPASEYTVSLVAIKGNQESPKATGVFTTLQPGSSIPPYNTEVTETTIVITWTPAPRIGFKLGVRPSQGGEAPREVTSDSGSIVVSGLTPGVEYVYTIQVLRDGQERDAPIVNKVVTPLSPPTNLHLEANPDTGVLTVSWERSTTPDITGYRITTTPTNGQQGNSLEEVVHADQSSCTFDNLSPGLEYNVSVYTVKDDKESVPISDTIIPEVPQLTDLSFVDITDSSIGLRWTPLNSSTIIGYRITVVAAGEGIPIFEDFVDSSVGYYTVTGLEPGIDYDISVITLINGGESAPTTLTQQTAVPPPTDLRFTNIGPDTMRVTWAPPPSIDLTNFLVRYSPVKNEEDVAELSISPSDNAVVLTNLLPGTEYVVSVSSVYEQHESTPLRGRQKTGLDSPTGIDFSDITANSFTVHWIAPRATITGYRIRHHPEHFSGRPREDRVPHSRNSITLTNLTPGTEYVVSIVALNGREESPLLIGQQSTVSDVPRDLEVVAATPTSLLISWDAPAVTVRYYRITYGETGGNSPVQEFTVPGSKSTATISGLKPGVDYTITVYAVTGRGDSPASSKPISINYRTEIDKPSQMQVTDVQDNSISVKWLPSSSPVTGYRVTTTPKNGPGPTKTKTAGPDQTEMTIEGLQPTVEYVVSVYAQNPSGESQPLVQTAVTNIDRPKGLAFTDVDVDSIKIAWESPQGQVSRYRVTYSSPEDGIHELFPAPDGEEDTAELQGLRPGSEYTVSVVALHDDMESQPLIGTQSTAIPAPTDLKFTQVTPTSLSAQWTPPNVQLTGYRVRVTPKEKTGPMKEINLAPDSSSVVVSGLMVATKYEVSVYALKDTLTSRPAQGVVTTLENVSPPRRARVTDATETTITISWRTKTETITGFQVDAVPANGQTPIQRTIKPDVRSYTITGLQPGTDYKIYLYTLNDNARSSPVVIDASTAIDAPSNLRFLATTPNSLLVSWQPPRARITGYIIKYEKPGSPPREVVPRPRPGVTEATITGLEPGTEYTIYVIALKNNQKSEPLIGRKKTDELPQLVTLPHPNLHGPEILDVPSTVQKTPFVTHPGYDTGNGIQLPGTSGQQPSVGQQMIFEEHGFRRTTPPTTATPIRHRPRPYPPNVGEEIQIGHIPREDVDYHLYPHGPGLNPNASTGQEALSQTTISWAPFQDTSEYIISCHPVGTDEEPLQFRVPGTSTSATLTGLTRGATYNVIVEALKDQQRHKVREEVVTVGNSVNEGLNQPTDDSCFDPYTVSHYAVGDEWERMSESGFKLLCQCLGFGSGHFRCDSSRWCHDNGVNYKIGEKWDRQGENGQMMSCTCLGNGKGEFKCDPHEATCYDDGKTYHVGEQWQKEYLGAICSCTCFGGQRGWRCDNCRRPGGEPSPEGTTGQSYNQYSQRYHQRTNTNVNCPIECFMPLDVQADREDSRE

What was measured:
Test in all cases: log2 fold change, soluble protein after heating vs DMSO (PISA); higher = thermal stabilisation; K562 lysate, 10 uM; active = over 0.2 and 3.5 SD of the protein, either way, in both replicates (recomputed)
[1] = compound: C#Cc1cccc(Nc2ncnc3cc(OCCOC)c(OCCOC)cc23)c1 [erlotinib]
Summary of the method: (§1)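 To prepare the extract, K562 pellets were dounce-homogenised in PBS pH 7.4 with 1 mM MgCl2, giving crude material at 1 mg/mL protein. This was treated with 10 μM compound for 30 min, then heated in aliquots for 3 min over 48°C-58°C before pooling and addition of NP-40 to 0.5% at 4°C. Centrifugation at 21,000xg for 90 min left soluble protein in the supernatant, which TMTpro 16plex LC-MS/MS quantified with equalised channel sums. Results are log-two fold changes in thermal stability compared with solvent controls, from duplicates.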

[2] = compound: C/C(=N\NC(=O)C1=CC(=CC=C1)S(=O)(=O)N2CCOCC2)/C3=C(C=CC(=C3)Cl)O
Summary of the method: as §1

[3] = compound: C1=CC(=CC=C1C2=NC3=C(N2)C=C(C=C3)C(=O)N)OC4=CC=C(C=C4)Cl
Summary of the method: as §1

[4] = compound: C1=CC2=C(C=CC(=C2)/C=C\3/C(=O)NC(=NCC4=CC=CS4)S3)N=C1
Summary of the method: as §1

[5] = compound: C1=CC2=NC=CN=C2C=C1/C=C/3\C(=O)NC(=O)S3
Summary of the method: as §1

[6] = compound: C1=CC=C(C=C1)C2=NC(=C(N2)C3=CC=NC=C3)C4=CC(=C(C=C4)Cl)O
Summary of the method: as §1

[7] = compound: C1=CC=C2C(=C1)C3=NNC4=CC=CC(=C43)C2=O
Summary of the method: as §1

[8] = compound: C1CCN(C1)C(=O)NC2=CC=CC(=C2)NC3=NC=C(C(=N3)NCCC4=CN=CN4)Br
Summary of the method: as §1

[9] = compound: C1CN(CCC1(CC2=CC=C(C=C2)Cl)N)C3=NC=NC4=C3C=CN4
Summary of the method: as §1

[10] = compound: C1COCCN1CCN2C3=CC=CC=C3N=C2NC(=O)C4=CC(=CC=C4)[N+](=O)[O-] [IRAK-1-4 Inhibitor I]
Summary of the method: as §1

[11] = compound: C=CC(=O)N1CCC[C@@H](n2nc(-c3ccc(Oc4ccccc4)cc3)c3c(N)ncnc32)C1 [ibrutinib]
Summary of the method: as §1

[12] = compound: CC(=O)c1cnc2ccc(-c3cc(Cl)c(O)c(Cl)c3)nc2c1N[C@H]1CC[C@H](CN(C)C)CC1
Summary of the method: as §1

[13] = compound: CC(C)(C)Cn1c(N)nc2ccc(-c3[nH]c(C(C)(C)C)nc3-c3ccc(F)cc3)nc21 [ralimetinib]
Summary of the method: as §1

[14] = compound: CC(C)(O)CC(=O)NCCn1ccc2ncnc(Nc3ccc(Oc4cccc(C(F)(F)F)c4)c(Cl)c3)c21
Summary of the method: as §1

[15] = compound: CC(C)C1=C2N=C(C=C(N2N=C1)NCC3=CC=CC=C3)NCCCCCCN
Summary of the method: as §1

[16] = compound: CC1=C(C(CC(=O)N1)C2=CC=C(C=C2)C(F)(F)F)C(=O)NC3=C(C=C4C(=C3)C=NN4)F
Summary of the method: as §1

[17] = compound: CC1=C(C2=C(C=C1)C(=O)C3=CC=CC=C3N2CCCN)C
Summary of the method: as §1

[18] = compound: CC1=C(C=C(C=C1)NC(=O)C2=CC(=CC=C2)C(C)(C)C#N)NC3=CC4=C(C=C3)N=CN(C4=O)C
Summary of the method: as §1

[19] = compound: CC1=C(C=C(C=C1)NC(=O)C2=CC(=CC=C2)N(C)C)NC(=O)C3=CC=C(C=C3)O
Summary of the method: as §1

[20] = compound: CC1=CC=C(C=C1)SC2=C3C=C(SC3=CN=C2)C(=O)N
Summary of the method: as §1

Measured: log2 fold change

FBXO4 (UniProt Q9UKT5)
inactive: [1] -0.005 | [2] -0.014 | [3] -0.026 | [4] -0.005 | [5] 0.003 | [6] -0.015 | [7] -0.024 | [8] 0 | [9] -0.029 | [10] -0.012 | [11] 0.023 | [12] -0.011 | [13] 0.02 | [14] -0.009 | [15] -0.008 | [16] -0.024 | [17] 0.003 | [18] 0.026 | [19] -0.007 | [20] -0.025

FNTB (UniProt P49356)
inactive: [1] -0.03 | [2] -0.038 | [3] 0.011 | [4] 0.013 | [5] -0.034 | [6] -0.005 | [7] -0.02 | [8] 0.028 | [9] -0.022 | [10] -0.006 | [11] -0.018 | [12] 0.005 | [13] 0.03 | [14] -0.013 | [15] -0.022 | [16] -0.036 | [17] -0.026 | [18] -0.011 | [19] 0.038 | [20] -0.013

FBXO6 (UniProt Q9NRD1)
inactive: [1] -0.001 | [2] 0.074 | [3] 0.019 | [4] 0.041 | [5] 0.036 | [6] 0.024 | [7] 0.002 | [8] -0.05 | [9] 0.027 | [10] -0.02 | [11] 0.039 | [12] -0.005 | [13] 0.021 | [14] -0.02 | [15] -0.012 | [16] -0.008 | [17] 0.007 | [18] 0.001 | [19] -0.053 | [20] -0.001

FGF2 (UniProt P09038)
inactive: [1] -0.027 | [2] 0.063 | [3] -0.081 | [4] 0.049 | [5] 0.025 | [6] 0.021 | [7] -0.009 | [8] -0.003 | [9] 0.058 | [10] -0.01 | [11] 0.089 | [12] 0.008 | [13] 0.008 | [14] -0.06 | [15] -0.058 | [16] -0.007 | [17] -0.039 | [18] -0.056 | [19] 0.008 | [20] 0.032

FAU (UniProt E9PR30)
inactive: [1] -0.026 | [2] -1.8 | [3] -0.059 | [4] -0.048 | [5] 0.016 | [6] -0.016 | [7] 0 | [8] 0.011 | [9] -0.021 | [10] 0.053 | [11] -0.018 | [12] 0.012 | [13] -0.01 | [14] -0.018 | [15] -0.122 | [16] -0.034 | [17] -0.015 | [18] 0.029 | [19] -0.003 | [20] 0.027

FAM98C (UniProt Q17RN3)
inactive: [1] 0.074 | [2] 0.024 | [3] 0.007 | [4] 0.004 | [5] 0.059 | [6] -0.064 | [7] -0.044 | [8] 0.074 | [9] 0.107 | [10] -0.027 | [11] 0.172 | [12] 0.032 | [13] -0.133 | [14] -0.08 | [15] -0.026 | [16] 0.078 | [17] -0.108 | [18] 0.058 | [19] 0.022 | [20] -0.04

FLII (UniProt Q13045)
inactive: [1] 0.009 | [2] 0.013 | [3] -0.012 | [4] -0.042 | [5] -0.005 | [6] 0.005 | [7] 0.002 | [8] 0.001 | [9] -0.027 | [10] -0.023 | [11] -0.012 | [12] 0.017 | [13] -0.001 | [14] 0.012 | [15] 0.007 | [16] -0.006 | [17] -0.019 | [18] 0.013 | [19] 0.018 | [20] 0.005

FNBP4 isoform 2 (UniProt Q8N3X1)
inactive: [1] -0.021 | [2] -0.007 | [3] -0.014 | [4] 0.019 | [5] 0.005 | [6] 0.011 | [7] 0.003 | [8] 0.015 | [9] 0.002 | [10] 0.011 | [11] 0.002 | [12] -0.007 | [13] 0.007 | [14] -0.013 | [15] -0.029 | [16] -0.004 | [17] -0.024 | [18] 0.003 | [19] 0.001 | [20] -0.009

FCHSD1 (UniProt Q86WN1)
inactive: [1] 0.029 | [2] -0.018 | [3] -0.027 | [4] -0.163 | [5] -0.051 | [6] -0.044 | [7] -0.056 | [8] -0.008 | [9] -0.012 | [10] 0.04 | [11] 0.048 | [12] 0.005 | [13] 0.058 | [14] 0.068 | [15] -0.006 | [16] 0.052 | [17] 0.013 | [18] 0.027 | [19] 0.094 | [20] 0.022

FASTKD5 (UniProt Q7L8L6)
inactive: [1] 0.061 | [2] 0.019 | [3] -0.054 | [4] 0.023 | [5] 0.013 | [6] -0.014 | [7] -0.066 | [8] -0.047 | [9] 0.013 | [10] -0.019 | [11] -0.134 | [12] 0.056 | [13] 0.073 | [14] 0.007 | [15] -0.027 | [16] 0.032 | [17] 0.006 | [18] 0.021 | [19] 0.008 | [20] -0.053

FLNA (UniProt P21333)
inactive: [1] 0.013 | [2] 0.044 | [3] 0.006 | [4] -0.011 | [5] -0.002 | [6] -0.003 | [7] 0.002 | [8] -0.002 | [9] 0.013 | [10] 0.015 | [11] 0 | [12] -0.01 | [13] 0.006 | [14] -0.024 | [15] 0.01 | [16] -0.016 | [17] 0.028 | [18] 0.032 | [19] -0.009 | [20] -0.002

FBLL1 (UniProt A6NHQ2)
inactive: [1] -0.003 | [2] -0.015 | [3] -0.008 | [4] 0.059 | [5] 0.075 | [6] -0.031 | [7] -0.031 | [8] 0.021 | [9] 0.022 | [10] -0.004 | [11] -0.042 | [12] -0.031 | [13] 0.029 | [14] -0.056 | [15] -0.014 | [16] 0.001 | [17] -0.121 | [18] 0.006 | [19] 0.049 | [20] -0.018

Copied from above (2 entries):
FGF2 (UniProt P09038)
inactive: [1] -0.027 | [2] 0.063 | [3] -0.081 | [4] 0.049 | [5] 0.025 | [6] 0.021 | [7] -0.009 | [8] -0.003 | [9] 0.058 | [10] -0.01 | [11] 0.089 | [12] 0.008 | [13] 0.008 | [14] -0.06 | [15] -0.058 | [16] -0.007 | [17] -0.039 | [18] -0.056 | [19] 0.008 | [20] 0.032

FAU (UniProt E9PR30)
inactive: [1] -0.026 | [2] -1.8 | [3] -0.059 | [4] -0.048 | [5] 0.016 | [6] -0.016 | [7] 0 | [8] 0.011 | [9] -0.021 | [10] 0.053 | [11] -0.018 | [12] 0.012 | [13] -0.01 | [14] -0.018 | [15] -0.122 | [16] -0.034 | [17] -0.015 | [18] 0.029 | [19] -0.003 | [20] 0.027

Additional entries follow.

FLYWCH2 (UniProt Q96CP2)
inactive: [1] -0.062 | [2] 0.045 | [3] 0.016 | [4] -0.029 | [5] 0.015 | [6] 0.034 | [7] 0.087 | [8] -0.006 | [9] 0.009 | [10] 0.027 | [11] 0.019 | [12] 0.02 | [13] -0.004 | [14] 0.009 | [15] -0.022 | [16] 0.009 | [17] 0.011 | [18] 0.024 | [19] -0.05 | [20] -0.041

FN1 (UniProt P02751)
inactive: [1] -0.015 | [2] -0.054 | [3] 0.025 | [4] 0.053 | [5] 0.113 | [6] 0.034 | [7] 0.059 | [8] -0.06 | [9] -0.007 | [10] -0.025 | [11] 0.02 | [12] -0.019 | [13] -0.001 | [14] -0.018 | [15] -0.015 | [16] 0.022 | [17] -0.039 | [18] -0.004 | [19] 0.046 | [20] -0.012

FBXO45 (UniProt P0C2W1)
inactive: [1] 0.077 | [2] 0.016 | [3] -0.033 | [4] 0.092 | [5] -0.099 | [6] -0.126 | [7] -0.069 | [8] 0.018 | [9] 0.01 | [10] -0.043 | [11] 0.207 | [12] 0.075 | [13] 0.173 | [14] 0.045 | [15] 0.043 | [16] 0.015 | [18] 0.064 | [19] 0.018 | [20] 0.081

FN3K (UniProt Q9H479)
inactive: [1] 0 | [2] 0.028 | [3] 0.047 | [4] -0.005 | [5] 0 | [6] 0.019 | [7] -0.007 | [8] 0.015 | [9] -0.001 | [10] 0.001 | [11] -0.003 | [12] -0.009 | [13] -0.001 | [14] 0.013 | [15] -0.015 | [16] -0.003 | [17] 0.002 | [18] 0.021 | [19] 0.003 | [20] 0.031
